From paper PMC13434726
No constants are given. Whether binding was seen depends on the method and setting. Binding seen in cells or lysates may run through a third protein. Here binding means that the protein was enriched with, or labelled near, the bait; the list need not be complete.

Chains of the proteins cited; added tags and fusions are not shown.
UniProt Q04206: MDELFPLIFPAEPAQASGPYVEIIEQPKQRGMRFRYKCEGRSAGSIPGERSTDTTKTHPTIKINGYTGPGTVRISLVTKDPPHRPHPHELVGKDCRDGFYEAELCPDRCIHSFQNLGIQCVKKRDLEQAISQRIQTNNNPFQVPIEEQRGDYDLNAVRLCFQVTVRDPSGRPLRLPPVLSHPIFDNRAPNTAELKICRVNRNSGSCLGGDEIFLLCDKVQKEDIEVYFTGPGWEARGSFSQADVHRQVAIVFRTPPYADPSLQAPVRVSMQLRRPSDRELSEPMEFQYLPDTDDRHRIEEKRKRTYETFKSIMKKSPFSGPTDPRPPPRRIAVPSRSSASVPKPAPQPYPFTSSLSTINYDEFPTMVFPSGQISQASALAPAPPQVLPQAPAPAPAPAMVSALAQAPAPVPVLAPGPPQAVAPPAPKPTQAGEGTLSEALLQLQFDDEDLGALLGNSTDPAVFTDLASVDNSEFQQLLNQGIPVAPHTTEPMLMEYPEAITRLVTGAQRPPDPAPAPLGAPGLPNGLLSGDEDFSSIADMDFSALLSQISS
UniProt O60826: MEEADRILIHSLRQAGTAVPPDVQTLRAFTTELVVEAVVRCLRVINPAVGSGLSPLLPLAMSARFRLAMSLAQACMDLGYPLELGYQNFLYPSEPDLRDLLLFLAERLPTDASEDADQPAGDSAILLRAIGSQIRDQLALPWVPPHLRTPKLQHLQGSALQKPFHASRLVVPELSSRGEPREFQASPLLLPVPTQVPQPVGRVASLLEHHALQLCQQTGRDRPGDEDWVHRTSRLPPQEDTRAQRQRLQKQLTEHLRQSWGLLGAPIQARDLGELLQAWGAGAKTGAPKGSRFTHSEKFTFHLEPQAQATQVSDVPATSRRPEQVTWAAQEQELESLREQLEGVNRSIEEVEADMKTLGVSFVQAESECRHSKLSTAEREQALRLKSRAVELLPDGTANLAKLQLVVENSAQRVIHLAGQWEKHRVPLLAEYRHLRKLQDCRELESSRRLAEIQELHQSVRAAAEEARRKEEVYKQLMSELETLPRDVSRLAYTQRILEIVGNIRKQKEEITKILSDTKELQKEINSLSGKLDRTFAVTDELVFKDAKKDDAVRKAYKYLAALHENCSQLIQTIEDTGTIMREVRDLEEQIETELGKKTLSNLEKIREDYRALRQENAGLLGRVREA
UniProt Q567U6: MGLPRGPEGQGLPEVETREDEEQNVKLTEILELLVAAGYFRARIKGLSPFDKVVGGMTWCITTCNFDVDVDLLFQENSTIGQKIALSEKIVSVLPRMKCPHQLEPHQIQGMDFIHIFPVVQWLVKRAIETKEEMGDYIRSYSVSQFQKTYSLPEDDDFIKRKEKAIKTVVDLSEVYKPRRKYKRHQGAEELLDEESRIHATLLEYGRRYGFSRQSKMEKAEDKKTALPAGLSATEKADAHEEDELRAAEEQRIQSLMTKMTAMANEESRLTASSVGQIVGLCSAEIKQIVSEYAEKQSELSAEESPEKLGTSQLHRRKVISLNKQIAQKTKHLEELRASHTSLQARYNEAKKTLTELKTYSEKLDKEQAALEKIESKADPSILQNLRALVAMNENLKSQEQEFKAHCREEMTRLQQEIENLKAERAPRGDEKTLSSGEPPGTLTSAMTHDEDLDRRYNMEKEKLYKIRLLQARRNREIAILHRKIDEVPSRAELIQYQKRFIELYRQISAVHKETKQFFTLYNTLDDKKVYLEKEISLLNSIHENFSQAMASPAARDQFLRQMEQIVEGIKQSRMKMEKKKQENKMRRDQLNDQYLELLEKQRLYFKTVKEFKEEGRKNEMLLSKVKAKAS
UniProt Q8N668: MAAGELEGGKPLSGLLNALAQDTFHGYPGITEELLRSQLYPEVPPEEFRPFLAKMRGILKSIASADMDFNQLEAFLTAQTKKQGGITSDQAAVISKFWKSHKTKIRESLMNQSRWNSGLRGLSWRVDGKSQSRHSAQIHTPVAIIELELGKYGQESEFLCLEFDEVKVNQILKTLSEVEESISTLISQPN
UniProt Q9H0A8: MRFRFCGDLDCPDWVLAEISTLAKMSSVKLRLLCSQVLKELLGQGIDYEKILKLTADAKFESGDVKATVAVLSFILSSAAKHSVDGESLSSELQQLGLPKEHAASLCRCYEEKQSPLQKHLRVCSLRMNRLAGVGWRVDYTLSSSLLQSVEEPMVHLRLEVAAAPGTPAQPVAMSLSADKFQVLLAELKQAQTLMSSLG
UniProt Q7Z4G1: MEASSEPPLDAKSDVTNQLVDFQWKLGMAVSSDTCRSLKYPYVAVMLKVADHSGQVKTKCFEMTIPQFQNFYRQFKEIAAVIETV
UniProt Q9NX08: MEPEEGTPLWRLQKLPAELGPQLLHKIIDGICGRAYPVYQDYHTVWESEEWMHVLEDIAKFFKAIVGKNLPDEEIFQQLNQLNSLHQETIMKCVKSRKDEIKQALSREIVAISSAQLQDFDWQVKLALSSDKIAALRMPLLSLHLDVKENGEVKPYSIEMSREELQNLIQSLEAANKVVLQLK
UniProt Q9UBN7: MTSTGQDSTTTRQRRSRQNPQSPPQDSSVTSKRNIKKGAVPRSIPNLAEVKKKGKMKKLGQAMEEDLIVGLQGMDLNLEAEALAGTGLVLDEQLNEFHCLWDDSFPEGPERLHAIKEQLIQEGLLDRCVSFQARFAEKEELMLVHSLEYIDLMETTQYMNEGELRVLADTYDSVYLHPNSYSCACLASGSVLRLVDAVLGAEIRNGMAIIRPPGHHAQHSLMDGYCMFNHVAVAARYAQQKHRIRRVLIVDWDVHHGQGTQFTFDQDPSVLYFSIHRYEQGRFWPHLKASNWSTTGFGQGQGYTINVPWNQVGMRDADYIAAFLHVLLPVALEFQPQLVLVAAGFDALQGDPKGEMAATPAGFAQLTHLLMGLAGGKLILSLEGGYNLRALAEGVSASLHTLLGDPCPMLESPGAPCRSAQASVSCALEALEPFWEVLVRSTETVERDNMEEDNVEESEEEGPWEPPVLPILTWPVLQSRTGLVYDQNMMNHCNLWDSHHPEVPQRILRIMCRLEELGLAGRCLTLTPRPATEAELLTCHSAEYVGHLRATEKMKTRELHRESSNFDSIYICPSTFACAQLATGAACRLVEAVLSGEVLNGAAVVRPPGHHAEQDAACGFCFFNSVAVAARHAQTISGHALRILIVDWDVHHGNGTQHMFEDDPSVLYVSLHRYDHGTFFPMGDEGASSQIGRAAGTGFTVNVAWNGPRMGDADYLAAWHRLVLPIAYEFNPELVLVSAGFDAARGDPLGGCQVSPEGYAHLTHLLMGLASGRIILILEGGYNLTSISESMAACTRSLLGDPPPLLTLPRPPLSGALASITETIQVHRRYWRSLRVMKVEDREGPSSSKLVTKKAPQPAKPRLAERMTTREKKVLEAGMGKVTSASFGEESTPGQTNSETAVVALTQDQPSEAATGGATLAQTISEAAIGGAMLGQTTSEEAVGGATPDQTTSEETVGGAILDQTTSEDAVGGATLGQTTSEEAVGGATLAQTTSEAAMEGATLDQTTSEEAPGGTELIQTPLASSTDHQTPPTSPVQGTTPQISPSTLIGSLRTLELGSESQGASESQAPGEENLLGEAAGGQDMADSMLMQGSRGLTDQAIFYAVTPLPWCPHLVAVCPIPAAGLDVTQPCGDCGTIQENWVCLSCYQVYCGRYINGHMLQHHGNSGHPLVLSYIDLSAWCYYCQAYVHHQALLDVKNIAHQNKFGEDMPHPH
UniProt O00762: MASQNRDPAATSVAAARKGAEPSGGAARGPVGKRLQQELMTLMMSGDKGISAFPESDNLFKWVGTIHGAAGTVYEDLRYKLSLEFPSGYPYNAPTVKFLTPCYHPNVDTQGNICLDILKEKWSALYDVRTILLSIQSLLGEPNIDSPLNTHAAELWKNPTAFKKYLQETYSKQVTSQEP

Columns and labels:
GFP-COMMD2 = GFP-COMMD2 (UniProt Q86X83); experiment: affinity purification with mass spectrometry
GFP-p65 [1] = target: GFP-p65 (UniProt Q04206); experiment: affinity purification with mass spectrometry
GFP-p65 [2] = target: GFP-p65 (UniProt Q04206); experiment: affinity purification with mass spectrometry; GFP-trap agarose immunoprecipitation of GFP-p65 from RIPA lysates of the stable A549 GFP-p65 cell line 2 h after challenge with TIGR4 or 6B ST90 (MOI 20); matched A549 GFP alone control; on-bead trypsin digestion, label-free LC-MS/MS

Substance | binding (GFP-COMMD2) | binding (GFP-p65 [1]) | binding (GFP-p65 [2])
CCDC22 (from UniProt O60826 1-627) | binds | – | –
CCDC93 (from UniProt Q567U6 1-631) | binds | – | –
COMMD1 (from UniProt Q8N668 1-190) | binds | – | –
COMMD4 (from UniProt Q9H0A8 1-199) | binds | binds | –
COMMD6 (from UniProt Q7Z4G1 1-85) | binds | – | –
COMMD8 (from UniProt Q9NX08 1-183) | binds | – | –
HDAC6 (from UniProt Q9UBN7 1-1215) | binds | – | binds
UBE2C (from UniProt O00762 1-179) | – | binds | –
p62/SQSTM1 (from UniProt Q13501 1-440) | binds | binds | –
p65 (from UniProt Q04206 1-551) | binds | – | –
